PubChem BioAssay AID485314 (National Center for Advancing Translational Sciences (NCATS), 2010)
Out of some 340,000 compounds screened, about 4,500 (1.3%) were called active. The shares of active, inactive and inconclusive entries below differ from those in the screen. Calls follow the shape of the dose curve; as a rule, active = well fitted inhibition curve with a large enough effect; inconclusive = small, poorly fitted or top-dose-only effect, or another doubt; inactive = no such curve, though single readings can be large or run the other way. A potency beside an inconclusive call is a rough fit, not a confirmed value.

target: DNA polymerase beta (Homo sapiens) (UniProt P06746); test: qHTS Assay for Inhibitors of DNA Polymerase Beta; settings: Pol beta primer extension/strand displacement, fluorescence kinetic; activity change, negative = inhibition: at 114 µM (top of the series)
Summary of the method: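 Kinetic readout of DNA synthesis with strand displacement by Pol beta. Compound and 10 nM enzyme sit 15 min at room temperature; 50 nM substrate starts the reaction, read immediately and at 10 min.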
% is scaled to controls: 0 for no effect and ±100 for the full control effect; potency is read from the fitted curve at half-maximal effect.

SMILES	Potency	activity change, negative = inhibition
CCOC(=O)C1=C(CC)OC(N)=C(C#N)C1c1cc(OC)ccc1OC (centres undefined)	inconclusive: 89.1 µM [inhibitor, single point]	
COc1cc(/C=C2\SC(=Nc3ccccc3OC)NC2=O)ccc1O		inactive: 14.9%
COc1cc([N+](=O)[O-])ccc1NC(=O)CCCOc1cccc(C)c1C	inconclusive: 79.4 µM [inhibitor, single point]	
Cc1ccc(-c2csc3ncn(CC#N)c(=O)c23)cc1C	active: 31.6 µM	
COCc1cc(C)nc2sc(C(=O)Nc3nccs3)c(N)c12	inconclusive: 89.1 µM [inhibitor, single point]	
Cc1ccc(C(=O)NC(=S)NCc2ccccc2)cc1	inconclusive: 14.1 µM [inhibitor, partial curve]	
NS(=O)(=O)c1ccc(CCNC(=O)Cn2c(=O)c3cccn3c3ccc(F)cc32)cc1	active: 44.7 µM	
COc1ccc2c(c1)CC(C(=O)Nc1c(C)cc(C)cc1C)CO2 (centres undefined)		inactive: 24.2%
Cn1c(=NC(=O)c2ccccc2[N+](=O)[O-])sc2cc(S(C)(=O)=O)ccc21		inactive: 24.8%
CCn1c(CSc2n[nH]c(N)n2)nc2cc(C(=O)O)ccc21	inconclusive: 28.2 µM [inhibitor, full curve, poor fit]	
Nc1c2c(nc3ccc(Br)cc13)N(c1ccccc1)CC2	inconclusive: 89.1 µM [inhibitor, single point]	
COc1ccc(-c2c3c(=O)n(C)c(=O)n(C)c3c3n2-c2ccccc2NC3c2ccccc2OC)cc1 (centres undefined)		inactive: 1.7%
CCOc1ccccc1NC(=O)c1ccc2c(c1)C(=O)N(CC(C)C)C2=O	inconclusive: 89.1 µM [inhibitor, single point]	
O=[N+]([O-])c1ccc(N2CCCCC2)c(Cl)c1N1CCCCC1	inconclusive: 39.8 µM [inhibitor, single point]	
COc1ccc(NC(=O)c2cc(S(=O)(=O)N(C)C)ccc2N2CCCC2)cc1Cl	inconclusive: 4.47 µM [inhibitor, full curve]	
O=C(O)c1ccc(N2C(=O)/C(=C/C=C/c3ccccc3)SC2=S)cc1	inconclusive: 10 µM [inhibitor, partial curve, poor fit]	
COc1ccc(Cl)cc1NC(=O)C1CCCN(S(=O)(=O)c2ccc3c(c2)CCCC(=O)N3)C1 (centres undefined)		inactive: -1.11%
Cc1ccc(/C=C/C(=O)N2CCc3ccccc32)o1	active: 12.6 µM	
COc1ccccc1-c1ccc(/C=N/O)o1		inconclusive: -33.9% [inhibitor]
CCOC(=O)Cn1c(=O)c(C#N)cn(C(C)C)c1=O	inconclusive: 89.1 µM [inhibitor, single point]	
CC1CCc2nc3ccc(S(=O)(=O)N4CCC(C(=O)NCc5ccccc5Cl)CC4)cc3c(C(=O)O)c2C1 (centres undefined)	active: 39.8 µM	
Cn1c(=O)[nH]c(=O)c2c1nc1n2CCCN1CCc1ccccc1	inconclusive: 35.5 µM [inhibitor, partial curve]	
CCCCn1c(=O)c2c(O)cc(=O)oc2c2ccccc21	inconclusive: 63.1 µM [inhibitor, single point]	

Three entries drawn at random from the list so far, as already listed:
SMILES	Potency	activity change, negative = inhibition
CCOC(=O)Cn1c(=O)c(C#N)cn(C(C)C)c1=O	inconclusive: 89.1 µM [inhibitor, single point]	
COc1ccc(Cl)cc1NC(=O)C1CCCN(S(=O)(=O)c2ccc3c(c2)CCCC(=O)N3)C1 (centres undefined)		inactive: -1.11%
CCCCn1c(=O)c2c(O)cc(=O)oc2c2ccccc21	inconclusive: 63.1 µM [inhibitor, single point]	

Complete entries as entered above.
NS(=O)(=O)c1ccc(CCNC(=O)Cn2c(=O)c3cccn3c3ccc(F)cc32)cc1 is listed as Potency: active: 44.7 µM
COc1ccc(NC(=O)c2cc(S(=O)(=O)N(C)C)ccc2N2CCCC2)cc1Cl is listed as Potency: inconclusive: 4.47 µM [inhibitor, full curve]

(listing goes on)

SMILES	Potency	activity change, negative = inhibition
Cc1[nH]n(C(N)=S)c(=O)c1N=Nc1ccc2ccccc2c1	inconclusive: 79.4 µM [inhibitor, single point]	
COc1ccc(C(=O)c2ccsc2N)cc1		inactive: 9.26%
CC(=O)CCc1c(C)nc2ccc(C(=O)O)cc2c1Cl	inconclusive: 14.1 µM [inhibitor, full curve, poor fit]	
O=C(NCc1ccco1)c1cc2ccc(O)cc2oc1=O	active: 15.8 µM	
COc1ccc(-c2cn3nc(N4CCCC(C(=O)Nc5ccccc5F)C4)sc3n2)cc1 (centres undefined)	inconclusive: 89.1 µM [inhibitor, single point]	
Cc1ccc(OCC(=O)NNc2c3ccccc3nc3ccccc23)cc1	inconclusive: 25.1 µM [inhibitor, partial curve]	
CCn1c(SCC(=O)NC(=O)NCc2ccco2)nnc1-c1cccs1	active: 50.1 µM	
CCOc1cccc(C(=O)N/N=C/c2ccoc2)c1	inconclusive: 22.4 µM [inhibitor, single point]	
Cc1nnc(NCCN2CCOCC2)[nH]c1=O	inconclusive: 11.2 µM [inhibitor, full curve, poor fit]	
CC(=O)N1CCc2c(sc(NC(=O)c3ccc([N+](=O)[O-])o3)c2C#N)C1	inconclusive: 20 µM [inhibitor, partial curve]	
O=C(O)CCCC(=O)NCc1c(Cl)cccc1Sc1ccc(Cl)cc1	inconclusive: 4.47 µM [inhibitor, single point]	
Oc1cccc(Nc2nc(O)c(/C=C3\C=Nc4ccccc43)s2)c1	inconclusive: 28.2 µM [inhibitor, full curve, poor fit]	
CC(CCc1ccccc1)NC(=O)CSc1nc(N)cc(N)n1 (centres undefined)	inconclusive: 89.1 µM [inhibitor, single point]	
COc1ccc(C(=O)Nc2ccc(Cn3ccnc3)cc2)cc1OC	inconclusive: 89.1 µM [inhibitor, single point]	
CC(=O)Nc1ccc(NC(=O)Cn2cnc3c(nnn3Cc3ccc(F)cc3)c2=O)cc1	inconclusive: 100 µM [inhibitor, partial curve, poor fit]	
COc1ccc(N(C)C(=O)Nc2ccc3nsnc3c2)cc1	inconclusive: 3.55 µM [inhibitor, single point]	
Cc1nc(Nc2ccc(S(N)(=O)=O)cc2)sc1C(=O)Nc1ccccc1	inconclusive: 31.6 µM [inhibitor, partial curve]	
CN(C)C1=NC(=O)/C(=C/c2ccc(-c3ccc(S(N)(=O)=O)cc3)o2)S1	inconclusive: 28.2 µM [inhibitor, partial curve, poor fit]	
CCCC(=O)N(c1ccc2oc3c(c2c1)CCCC3)S(=O)(=O)c1ccc(CC)cc1		inactive: 0.149%
COc1cc(NS(=O)(=O)c2ccc(NC(=O)CCC(=O)O)cc2)nc(OC)n1	inconclusive: 100 µM [inhibitor, single point]	
Cc1cccc(NC(=O)C(C)SCc2nc3sc(C)c(C)c3c(=O)[nH]2)n1 (centres undefined)	inconclusive: 22.4 µM [inhibitor, single point]	
Cc1ccc(CNS(=O)(=O)c2ccc(F)c(C(=O)Nc3ccc(C)c(F)c3)c2)cc1	inconclusive: 25.1 µM [inhibitor, full curve]	
O=C(c1cc2ccccc2[nH]1)N1CCOCC1	inconclusive: 89.1 µM [inhibitor, single point]	

SMILES	Potency	activity change, negative = inhibition
Cc1cc(NC(=O)c2cc(-c3ccncc3)nc3c(C)cccc23)no1	inconclusive: 15.8 µM [inhibitor, full curve, poor fit]	
O=C(O)c1ccccc1SCC(=O)N1CCOCC1	inconclusive: 44.7 µM [inhibitor, single point]	
COc1ccccc1CCNC(=O)c1cc2c(=O)n3cccc(C)c3nc2n1C	inconclusive: 44.7 µM [inhibitor, partial curve]	
CNc1nc(N)c(C(=O)C23CC4CC(CC(C4)C2)C3)s1	inconclusive: 2.51 µM [inhibitor, full curve]	
CCOc1ccc(-c2nc(Cn3c(=O)cc(-c4ccccc4)c4c(C)nn(C)c43)c(C)o2)cc1OC		inactive: -19.7%
COc1ccc2c(c1)Cc1sc(NC(=O)c3ccccc3)nc1-2		inactive: 6.71%
CCc1ccc(S(=O)(=O)/N=C2\C=C(Nc3ccc(O)cc3)C(=O)c3ccccc32)cc1	inconclusive: 56.2 µM [inhibitor, partial curve]	
Cc1nc2nc(COc3ccccc3)[nH]n2c(=O)c1Cl	inconclusive: 89.1 µM [inhibitor, single point]	
CC(C)CCNc1cc(=O)n(C)c(=O)n1C	inconclusive: 89.1 µM [inhibitor, single point]	
CCOC(=O)c1cc2sccc2n1Cc1ccccc1	inconclusive: 56.2 µM [inhibitor, partial curve]	
O=c1c(-c2ccccc2Cl)coc2c(CN3CCCCC3)c(O)ccc12	inconclusive: 35.5 µM [inhibitor, single point]	
CC(C)c1ccc(NC(=O)CCCC(=O)NCCc2ccccc2)cc1	inconclusive: 0.447 µM [inhibitor, partial curve, poor fit]	
COc1ccc(Nc2cc(C(=O)NCCCN(C)Cc3ccccc3)c3ccccc3n2)cc1OC	inconclusive: 89.1 µM [inhibitor, single point]	
COc1cccc(CNC(=O)C(=O)NCC(c2cccs2)S(=O)(=O)c2cccs2)c1 (centres undefined)		inactive: 8.69%
Cc1cccc(C(=O)NC2CCN(CC(=O)Nc3ccccc3Cl)CC2)c1		inactive: 1.8%
CCSC1=NC2(CCN(C(=O)NC3CCCCC3)CC2)N=C1c1ccc(C)cc1		inactive: 25.1%
CN(C)c1ccc(C2/C(=C(/O)c3ccc(Br)cc3)C(=O)C(=O)N2C)cc1 (centres undefined)	inconclusive: 79.4 µM [inhibitor, single point]	
O=C(Oc1ccccc1O)c1cccc2ccccc12	inconclusive: 22.4 µM [inhibitor, single point]	
COc1ccc(N2CCN(CC(O)COc3ccc(C)c(C)c3)CC2)cc1 (centres undefined)	inactive	
CCOc1ccccc1NC(=O)C(OC(=O)c1ccc(CC)cc1)c1ccccc1 (centres undefined)	inconclusive: 22.4 µM [inhibitor, full curve, poor fit]	
Cc1ccccc1NC(=O)c1ccc2c(c1)OCCO2	inconclusive: 0.891 µM [inhibitor, full curve]	
Cc1csc(NC(=O)c2cc(-c3ccco3)nc3ccccc23)n1	active: 7.94 µM	
CCOc1cccc(NC(=O)CSc2ncc(-c3ccc(Cl)cc3)[nH]2)c1		inactive: -0.737%
